Data taken from patent US11395847B2 (Zealand Pharma A/S, priority 2016, dated 2022).
*1 amine or outer side, *2 acyl side, *3 side chain or, on linkers, in order; H or OH if unused. Side-chain parts run from the residue outwards. [ ]: non-standard residue; d: D form. The star is where a group is joined. C18 diacid = O=C(O)CCCCCCCCCCCCCCCCC(=O)*; γGlu = O=C(O)[C@H](CCC(=O)[*:2])N[*:1]; Aib = CC(C)(N)C(=O)O

Tests used:
[1] = general procedure: Fmoc solid-phase peptide synthesis; TENTAGEL S PHB Asp(tBu)Fmoc; details: whole synthesis, 0.23 mmol/g
[2] = general procedure: Fmoc solid-phase peptide synthesis; TentaGel (TentaGel S PHB Asp(tBu)Fmoc, 0.23 mmol/g); details: whole synthesis; for final HPLC purity: HPLC and MS; for crude purity (method not given): analytical HPLC and MS

| Substance | crude mass ([1]; scale 1.15 g) [mg] | final HPLC purity [2] [%] | crude purity (method not given) [2] | crude mass ([1]; scale 1.20 g) [mg] |
| --- | --- | --- | --- | --- |
| H-H[Aib]EGTFSSELATILDK([γGlu-C18 diacid])EAARDFIAWLIEHKITD-OH | 1100 | 91 | ˜40% |  |
| H-H[Aib]EGTFSSELATILDK([γGlu-C18 diacid])KAARDFIAWLIEHKITD-OH |  | 91 | ˜35% | 900 |
